Measured values published in article PMC5741760.
No constants are given. Whether binding was seen depends on the method and setting. Some results given as binding are weak or reduced against the parent protein; the word gives no strength.

Sequences of proteins named here, by UniProt entry; tags and fusion partners are left off.
UniProt Q60974: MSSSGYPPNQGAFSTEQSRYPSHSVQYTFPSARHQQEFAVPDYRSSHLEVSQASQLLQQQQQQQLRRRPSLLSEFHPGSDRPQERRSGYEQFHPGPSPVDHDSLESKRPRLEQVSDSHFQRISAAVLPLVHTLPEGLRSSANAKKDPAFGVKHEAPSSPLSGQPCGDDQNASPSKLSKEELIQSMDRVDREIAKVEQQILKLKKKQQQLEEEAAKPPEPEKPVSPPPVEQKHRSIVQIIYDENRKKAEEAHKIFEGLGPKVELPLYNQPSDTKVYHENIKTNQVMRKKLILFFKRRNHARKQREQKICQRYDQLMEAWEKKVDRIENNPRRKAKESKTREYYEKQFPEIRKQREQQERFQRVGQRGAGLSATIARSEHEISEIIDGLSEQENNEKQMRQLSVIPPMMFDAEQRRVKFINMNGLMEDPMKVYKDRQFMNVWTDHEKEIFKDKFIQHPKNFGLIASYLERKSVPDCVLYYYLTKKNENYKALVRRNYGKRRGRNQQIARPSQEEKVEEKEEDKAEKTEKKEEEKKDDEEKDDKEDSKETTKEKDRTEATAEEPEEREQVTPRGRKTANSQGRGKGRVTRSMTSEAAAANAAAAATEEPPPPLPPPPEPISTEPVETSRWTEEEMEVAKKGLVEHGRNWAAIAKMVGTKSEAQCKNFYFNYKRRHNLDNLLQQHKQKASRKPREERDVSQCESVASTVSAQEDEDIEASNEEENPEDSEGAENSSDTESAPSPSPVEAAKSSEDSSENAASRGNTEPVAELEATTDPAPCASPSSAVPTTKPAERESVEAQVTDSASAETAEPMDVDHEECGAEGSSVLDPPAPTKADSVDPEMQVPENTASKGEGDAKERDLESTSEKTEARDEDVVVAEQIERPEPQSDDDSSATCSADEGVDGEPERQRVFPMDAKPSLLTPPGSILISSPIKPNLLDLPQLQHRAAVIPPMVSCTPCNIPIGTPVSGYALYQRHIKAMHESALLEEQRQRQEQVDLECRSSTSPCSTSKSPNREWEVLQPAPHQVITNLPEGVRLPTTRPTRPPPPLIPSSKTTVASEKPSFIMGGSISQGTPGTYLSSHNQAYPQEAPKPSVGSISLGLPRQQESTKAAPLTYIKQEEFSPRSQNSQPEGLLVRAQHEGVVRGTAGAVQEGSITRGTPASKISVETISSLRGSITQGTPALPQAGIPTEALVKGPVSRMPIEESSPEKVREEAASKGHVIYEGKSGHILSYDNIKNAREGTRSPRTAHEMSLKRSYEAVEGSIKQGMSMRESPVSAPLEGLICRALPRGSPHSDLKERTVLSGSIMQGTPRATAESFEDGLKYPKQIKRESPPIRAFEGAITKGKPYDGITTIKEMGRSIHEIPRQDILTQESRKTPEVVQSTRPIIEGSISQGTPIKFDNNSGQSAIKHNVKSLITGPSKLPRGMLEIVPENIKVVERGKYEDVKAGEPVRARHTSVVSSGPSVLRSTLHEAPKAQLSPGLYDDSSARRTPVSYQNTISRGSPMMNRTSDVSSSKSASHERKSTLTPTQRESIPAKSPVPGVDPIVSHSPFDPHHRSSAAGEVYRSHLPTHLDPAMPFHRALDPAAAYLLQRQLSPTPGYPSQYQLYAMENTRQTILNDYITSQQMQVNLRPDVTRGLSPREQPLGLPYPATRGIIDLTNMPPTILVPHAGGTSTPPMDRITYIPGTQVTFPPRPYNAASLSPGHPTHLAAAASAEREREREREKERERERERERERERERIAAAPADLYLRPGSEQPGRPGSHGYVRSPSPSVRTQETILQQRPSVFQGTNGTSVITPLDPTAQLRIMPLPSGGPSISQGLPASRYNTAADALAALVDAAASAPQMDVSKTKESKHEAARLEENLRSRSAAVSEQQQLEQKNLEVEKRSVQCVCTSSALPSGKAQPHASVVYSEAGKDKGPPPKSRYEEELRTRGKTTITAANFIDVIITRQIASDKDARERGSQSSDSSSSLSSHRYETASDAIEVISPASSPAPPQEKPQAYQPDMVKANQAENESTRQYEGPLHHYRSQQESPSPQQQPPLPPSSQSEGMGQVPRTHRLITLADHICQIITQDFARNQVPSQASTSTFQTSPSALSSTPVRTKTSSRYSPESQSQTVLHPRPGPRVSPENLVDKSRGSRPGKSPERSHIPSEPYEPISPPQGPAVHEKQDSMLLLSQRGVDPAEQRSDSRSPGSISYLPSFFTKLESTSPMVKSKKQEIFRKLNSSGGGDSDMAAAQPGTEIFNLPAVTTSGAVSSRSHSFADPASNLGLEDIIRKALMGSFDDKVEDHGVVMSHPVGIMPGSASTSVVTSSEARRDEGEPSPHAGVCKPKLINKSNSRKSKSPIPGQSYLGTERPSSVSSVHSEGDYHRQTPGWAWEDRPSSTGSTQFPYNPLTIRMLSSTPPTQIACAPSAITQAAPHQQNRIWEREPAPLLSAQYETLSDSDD

Molecular target: T1, thyroid hormone receptor α1 (TRα1) (mouse (endogenous in bone marrow)) (UniProt P63058)
T1 sequence: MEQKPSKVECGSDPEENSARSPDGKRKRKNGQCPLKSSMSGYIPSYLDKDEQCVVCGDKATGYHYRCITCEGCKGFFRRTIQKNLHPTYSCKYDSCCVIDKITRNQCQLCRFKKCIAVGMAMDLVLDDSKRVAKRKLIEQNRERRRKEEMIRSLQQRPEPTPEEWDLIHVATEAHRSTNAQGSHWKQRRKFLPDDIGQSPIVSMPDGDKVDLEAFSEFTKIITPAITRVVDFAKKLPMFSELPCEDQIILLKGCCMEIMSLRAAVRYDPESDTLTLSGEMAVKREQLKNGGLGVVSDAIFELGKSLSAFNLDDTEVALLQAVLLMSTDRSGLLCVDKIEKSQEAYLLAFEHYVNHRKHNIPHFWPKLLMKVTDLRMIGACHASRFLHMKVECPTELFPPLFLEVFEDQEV
Test: chromatin immunoprecipitation (ChIP); bone marrow cells of WT and mutant mice fixed in 1% formaldehyde, sheared, immunoprecipitated overnight at 4 °C with anti-NCOR1 (ab24552) or anti-HDAC3 antibody or IgG; qPCR of the TRE2 fragment upstream of Gata1; percentage of the input

binding: binds weakly
Substance: nuclear receptor corepressor 1 (NCOR1) (from UniProt Q60974 1-2453)
